Data as given in PubChem BioAssay AID1053208 (Peter MacCallum Cancer Centre, 2014)
Here is a random part of about 17,000 reagents. 788 of all reagents (4.7%) were called active. 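Calls rest on z-score classes alone; an extra cut-off of viability at most 70% of control was not applied to them.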

Assay: 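Genes whose silencing cuts survival of bone tumour cells only with doxorubicin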 (primary screen)
Cell system: mouse osteosarcoma cells, early-passage culture from an engineered mouse model of fibroblastic bone tumour
Knock-down reagent: siRNA pool against mouse genes, 40 nM
Timing: about 120 h (48 h before drug, then 72 h with drug)
Treatment: doxorubicin 100 nM for 72 h, roughly 30-40% inhibitory dose
Read-out: 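Luminescent ATP signal taken as viability with or without 100 nM doxorubicin for 72 h; mean of two wells set against non-targeting siRNA and turned into robust z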
Reading the numbers: viability z-score with doxorubicin and doxorubicin viability vs non-targeting: higher = more viable cells under doxorubicin; viability z-score without drug: higher = more viable cells with knock-down alone; z-score of drug to no-drug ratio: higher = less drug sensitisation by knock-down
Active means: 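Called active if knock-down leaves viability unchanged without drug (z within -2 to 2) but lowers it with doxorubicin (z at or under -2)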

Gene	combined z-score class	viability z-score with doxorubicin	viability z-score without drug	z-score of drug to no-drug ratio	doxorubicin viability vs non-targeting	Call
Or6c217	low cell count with and without drug	-2.92	-3.54	-0.67	0.68	inactive
Slc7a12	low cell count without drug only	-0.9	-2.7	1.24	0.86	inactive
Anxa6	no change with or without drug	-0.34	0.84	-0.79	0.91	inactive
Abcb11	no change with or without drug	0	0.84	-0.45	0.94	inactive
Ccar1	no change with or without drug	-0.9	0.51	-1.12	0.86	inactive
Tbc1d13	no change with or without drug	0.45	0	0.56	0.98	inactive
Or5au1	no change with or without drug	0.22	-0.51	0.67	0.96	inactive

2 entries already listed, arranged by “doxorubicin viability vs non-targeting”, descending:
Gene	combined z-score class	viability z-score with doxorubicin	viability z-score without drug	z-score of drug to no-drug ratio	doxorubicin viability vs non-targeting	Call
Abcb11	no change with or without drug	0	0.84	-0.45	0.94	inactive
Anxa6	no change with or without drug	-0.34	0.84	-0.79	0.91	inactive

More records:
Gene	combined z-score class	viability z-score with doxorubicin	viability z-score without drug	z-score of drug to no-drug ratio	doxorubicin viability vs non-targeting	Call
Bet1	no change with or without drug	-0.22	0.17	-0.22	0.92	inactive
Htr3a	no change with or without drug	-0.45	-1.35	0.56	0.9	inactive
Bcorl1	no change with or without drug	1.12	0.17	1.12	1.04	inactive
Tnpo1	no change with or without drug	0.22	0.67	-0.11	0.96	inactive
Krtap26-1	no change with or without drug	0.67	0.34	0.56	1	inactive
Krt82	no change with or without drug	-1.8	-0.51	-1.46	0.78	inactive
Neil3	no change with or without drug	0.22	0.17	0.22	0.96	inactive
Parvb	no change with or without drug	0.34	-0.51	0.79	0.97	inactive
Pltp	no change with or without drug	-0.22	0.51	-0.45	0.92	inactive
Atp6v0a2	no change with or without drug	-0.11	-0.51	0.34	0.93	inactive
Myog	no change with or without drug	1.35	-0.67	2.02	1.06	inactive
Tectb	no change with or without drug	-1.57	-1.52	-0.56	0.8	inactive
Gpi1	no change with or without drug	-0.22	-0.84	0.45	0.92	inactive
